Source: patent publication US11712404B2 (priority 2018, dated 2023)
Values joined by “and” are separate entries in the source; they are usually repeats but may differ in a detail not shown here. Equal entries are not always repeated.

Test: Polymerization kinetics of adhesive resins (real-time near-IR during photocuring)
Conditions: for degree of conversion at Rpmax (DC at Rpmax) / maximum rate of polymerization (Rpmax): average (SD); for increase of polymerization rate when combined with UDMA: UDMA versus BisGMA
[1] = 40 wt % monomer with 60 wt % BisGMA
[2] = 40 wt % monomer with 60 wt % UDMA

Compound	degree of conversion at Rpmax (DC at Rpmax) [1]	maximum rate of polymerization (Rpmax) [1]	degree of conversion at Rpmax (DC at Rpmax) [2]	maximum rate of polymerization (Rpmax) [2]	DC at 40 s (BisGMA (second Table 2))	DC at Rpmax (BisGMA (second Table 2))	Rpmax (BisGMA (second Table 2))	DC at 40 s (UDMA (second Table 2))	DC at Rpmax (UDMA (second Table 2))	Rpmax (UDMA (second Table 2))	final degree of conversion (copolymerization with BisGMA)	final degree of conversion higher than HEM (copolymerization with BisGMA)	polymerization rate (copolymerization with BisGMA)	polymerization rate relative to HEM (copolymerization with BisGMA)	final degree of conversion (copolymerization with UDMA)	polymerization rate (copolymerization with UDMA)	increase of polymerization rate when combined with UDMA
C=CC(=O)N(C)C [DMAM, N.N-Dimethylacrylamide]	39.1 (2.9) AB %	31.3 (0.6) A % · s^−1	54.0 (0.9) A %	24.6 (2.0) A % · s^−1	81.3(0.8)A	39.1(2.9)A %	31.3(0.6)A %·s−1	91.0(1.5)A	54.0(0.9)A %	24.6(2.0)A %·s−1	90.2%	13%	31.3 %.sec^−1 and 31.2 %.sec^−1	~4 times	95.5%	24.6 %.sec^−1 and 23.0 %.sec^−1	
C=CC(=O)NCCO [HEAM, N-Hydroxyethyl acrylamide]	35.3 (0.9) BC %	11.4 (0.4) C % · s^−1															
C=CC(=O)N(C)CCO [HEM, N-(2-hydroxyethyl)-N-methylacrylamide]	29.6 (0.6) CD %	8.3 (1.4) D % · s^−1	36.5 (2.3) C %	26.2 (0.5) A % · s^−1	60.3(0.7)C	29.6(0.6)BC %	8.3(1.4)C %·s−1	84.2(1.9)A	36.5(2.3)C %	26.2(0.5)A %·s−1	78.1%		8.3 %.sec^−1		93.2% and 92.6%	26.2 %.sec^−1 and 25.0 %.sec^−1 and 26.1 %.sec^−1	
C=C(C)C(=O)OCCO [HEMA, 2-Hydroxyethyl methacrylate]	29.8 (1.9) CD %	10.9 (0.6) C % · s^−1	44.7 (1.0) B %	17.1 (0.1) B % · s^−1	67.7(2.7)B	29.8±1.9% and 29.8(1.9)BC %	10.9(0.6)B %·s−1	75.3(1.2)B	44.7±1.0% and 44.7(1.0)B %	17.1(0.1)B %·s−1					90.3%	17.1 %.sec^−1 and 17.0 %.sec^−1	
C=C(C)C(=O)NCCO [HEMAM, N-Hydroxyethyl methacrylamide]	26.1 (0.2) D %	6.9 (0.9) D % · s^−1	22.7 (0.9) D %	16.9 (0.2) B % · s^−1	47.3(6.9)D	26.1(0.2)C %	6.9(0.9)C %·s−1	65.4(1.5)C	22.7(0.9)D %	16.9(0.2)B %·s−1	74.9% and 75.9%		6.9 %.sec^−1 and 7.4 %.sec^−1		84.0%	16.9 %.sec^−1 and 17.0 %.sec^−1 and 16.0 %.sec^−1	more than two-fold
C=C(C)C(=O)N(C)CCO [HEMMA, N-(2-hydroxyethyl)-N-methylmethacrylamide]	19.0 (1.1) E %	1.9 (0.3) E % · s^−1															
C=C(C)C(=O)NC(CC)CO (stereo not shown) [Monomer 2EM, N-(1-hydroxybutan-2-yl)methacrylamide]	18.5 (0.7) E %	6.8 (0.1) D % · s^−1	16.5 (2.7) E %	14.7 (0.6) B % · s^−1	41.3(0.7)D	18.5(0.7)D %	6.8(0.1)C %·s−1	58.4(1.6)CD	16.5(2.7)E %	14.7(0.6)B %·s−1	72.6%		8.3 %.sec^−1 and 6.7 %.sec^−1		84.1%	14.7 %.sec^−1 and 14.0 %.sec^−1	more than two-fold
C=C(C)C(=O)NC(C)(C)CO [Monomer 2dMM, N-(1-hydroxy-2-methylpropan-2-yl)methacrylamide]	14.5 (3.0) E %	12.4 (0.6) BC % · s^−1	18.6 (1.6) DE %	15.9 (0.2) B % · s^−1	45.3(0.6)D	14.5(3.0)D %	12.4(0.6)B %·s−1	57.0(1.0)D	18.6(1.6)DE %	15.9(0.2)B %·s−1	73.7%		12.4 %.sec^−1 and 12.3 %.sec^−1		80.1%	15.9 %.sec^−1 and 15.0 %.sec^−1	25%
